These are yes or no findings as the source states them, for the method shown. Some entries that bind do so weakly or less than the wild type.

Drawing on patent US20190389961A1, this text covers binding for 1 molecule.

In this experiment the target is T1, human CD39 mutant 12 (human) (UniProt P49961).
T1 sequence: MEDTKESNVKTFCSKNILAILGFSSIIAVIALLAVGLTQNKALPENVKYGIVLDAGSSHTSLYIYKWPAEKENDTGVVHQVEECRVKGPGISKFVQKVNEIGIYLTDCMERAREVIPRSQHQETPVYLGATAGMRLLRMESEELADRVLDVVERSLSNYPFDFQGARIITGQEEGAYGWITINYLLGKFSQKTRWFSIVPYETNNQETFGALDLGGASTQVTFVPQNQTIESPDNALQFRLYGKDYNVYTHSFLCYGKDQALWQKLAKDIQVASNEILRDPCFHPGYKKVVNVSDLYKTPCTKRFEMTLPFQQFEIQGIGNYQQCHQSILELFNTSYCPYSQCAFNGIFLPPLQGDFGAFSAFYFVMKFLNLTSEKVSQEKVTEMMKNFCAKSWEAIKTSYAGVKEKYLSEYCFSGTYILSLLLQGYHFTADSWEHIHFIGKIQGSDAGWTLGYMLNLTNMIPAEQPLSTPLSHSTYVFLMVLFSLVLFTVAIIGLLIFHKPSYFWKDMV
The experiment can be described thus: flow cytometry, Hek-293T cells expressing the mutant. (In general: A flow cytometer gives signals particle by particle.)

B1: antibody I-399 (antibody, V domains shown)
VH: PVQLQQPGAEVVMPGASVKLSCKASGYTFTSFWMNWMRQRPGQGLEWIGEIDPSDFYTNSNQRFKGKATLTVDKSSSTAYMQLSSLTSEDSAVYFCARGDFGWYFDVWGTGTSVTVSS
VL: EIVLTQSPTTMTSSPGEKITFTCSASSSINSNYLHWYQQKPGFSPKLLIYRTSNLASGVPTRFSGSGSGTSYSLTIGTMEAEDVATYYCQQGSSLPRTFGGGTKLEIK
With B1, the binding result is on record as “binds”.
